Laboratory results as given in patent US20240166755A1, “CHIMERIC ANTIGEN RECEPTORS TARGETING CANCER” (University of Southern California, priority 2016, published 2024).
At least one structure is not confirmed: it was looked up by name or label, or the drawing left a doubt.

How the values were obtained:
RAJI-GLuc cells = experiment: ELISA of IFNγ in supernatant of RAJI-GLuc cells with Blinatumomab and T cells; settings: 100 nM
[1] = tested on: Blinatumomab induced cell death of RAJI-GLuc cells mediated by T cells; experiment: Blinatumomab-induced, T cell-mediated death of RAJI-GLuc cells and its block by drugs (GLuc assay); type: cell-based, human; settings: at the indicated concentrations

SMILES	Blinatumomab-induced IFNγ production (RAJI-GLuc cells)	Blinatumomab induced cell death mediated by T cells [1]
Cc1nc(Nc2ncc(C(=O)Nc3c(C)cccc3Cl)s2)cc(N2CCN(CCO)CC2)n1 [Dasatinib]	effectively blocked	
N#CC[C@H](C1CCCC1)n1cc(-c2ncnc3[nH]ccc23)cn1 [Ruxolitinib]		only a minimal effect
